Record: PubChem BioAssay AID1053208 (Peter MacCallum Cancer Centre, 2014)
Screen: 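Genes whose silencing cuts survival of bone tumour cells only with doxorubicin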 (primary screen). Cells: mouse osteosarcoma cells, early-passage culture from an engineered mouse model of fibroblastic bone tumour. Reagents: siRNA pool against mouse genes, 40 nM. Time to read-out: about 120 h (48 h before drug, then 72 h with drug). Challenge: doxorubicin 100 nM for 72 h, roughly 30-40% inhibitory dose. Measurement: 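Luminescent ATP signal taken as viability with or without 100 nM doxorubicin for 72 h; mean of two wells set against non-targeting siRNA and turned into robust z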. Reading the numbers: viability z-score with doxorubicin: higher = more viable cells under doxorubicin; viability z-score without drug: higher = more viable cells with knock-down alone. Hit rule: 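a pool counts as active when its viability z-score with doxorubicin is -2 or below and its z-score without drug lies between -2 and 2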.
Here is one part, drawn at random, of about 17,000 deposited reagents. 788 of all reagents (4.7%) were called active. 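Calls rest on z-score classes alone; an extra cut-off of viability at most 70% of control was not applied to them.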 Entries without a mark were called inactive. The numbers tell different reagents against one gene apart. Further read-outs or replicates are left out here.

Depletion of Asic5 resulted in: combined z-score class no change with or without drug; viability z-score with doxorubicin -0.45; viability z-score without drug -0.17.
After knock-down of H2bc3 the results were combined z-score class no change with or without drug; viability z-score with doxorubicin -0.22; viability z-score without drug 0.17.
After knock-down of Ints7 the results were combined z-score class no change with or without drug; viability z-score with doxorubicin -1.69; viability z-score without drug 0.17.
With knock-down of Gemin5, the record shows combined z-score class no change with or without drug; viability z-score with doxorubicin 0.34; viability z-score without drug 1.69.
Silencing of Vmn2r30 gave: combined z-score class no change with or without drug; viability z-score with doxorubicin -1.35; viability z-score without drug -1.18.
Silencing of Napb came out at: combined z-score class no change with or without drug; viability z-score with doxorubicin 0.9; viability z-score without drug 0.51.
Against Tmcc2, the entry reads combined z-score class low cell count without drug only; viability z-score with doxorubicin -1.57; viability z-score without drug -2.87.
Gzmf scored combined z-score class no change with or without drug; viability z-score with doxorubicin 0.67; viability z-score without drug 1.52.
For Ca6, the entry reads combined z-score class no change with or without drug; viability z-score with doxorubicin -1.35; viability z-score without drug -0.17.
With knock-down of Tbc1d22a, the screen gave combined z-score class no change with or without drug; viability z-score with doxorubicin 1.01; viability z-score without drug -0.17.
Ifi44l gave combined z-score class high cell count with doxorubicin only; viability z-score with doxorubicin 2.25; viability z-score without drug 1.18.
Against Fcsk, the entry reads combined z-score class no change with or without drug; viability z-score with doxorubicin -0.22; viability z-score without drug 0.84.
N4bp3 gave combined z-score class no change with or without drug; viability z-score with doxorubicin -0.67; viability z-score without drug -0.17.
Med6 gave combined z-score class no change with or without drug; viability z-score with doxorubicin 0.56; viability z-score without drug 0.17.
Sstr1 scored combined z-score class no change with or without drug; viability z-score with doxorubicin -1.8; viability z-score without drug 0.17.
With knock-down of Prc1, the record shows combined z-score class no change with or without drug; viability z-score with doxorubicin 1.46; viability z-score without drug -0.17.
Against Airim the deposit lists combined z-score class high cell count without drug only; viability z-score with doxorubicin 0.67; viability z-score without drug 2.02.
After knock-down of Ctnnd1, the screen gave combined z-score class no change with or without drug; viability z-score with doxorubicin 1.57; viability z-score without drug 0.51.
Drc2 showed combined z-score class no change with or without drug; viability z-score with doxorubicin 1.12; viability z-score without drug 0.84.
Silencing of Ly6g6d #1 resulted in: combined z-score class no change with or without drug; viability z-score with doxorubicin 0; viability z-score without drug -0.17.
Ly6g6d #2 showed combined z-score class no change with or without drug; viability z-score with doxorubicin 1.35; viability z-score without drug 1.52.
For Klrc3, the entry reads combined z-score class low cell count with doxorubicin only (active); viability z-score with doxorubicin -2.25; viability z-score without drug -1.85.
Against Csf2ra, the values are combined z-score class no change with or without drug; viability z-score with doxorubicin -0.9; viability z-score without drug 1.18.
Xlr4c scored combined z-score class no change with or without drug; viability z-score with doxorubicin 0.34; viability z-score without drug -0.51.
Against Taf7, the values are combined z-score class low cell count without drug only; viability z-score with doxorubicin -1.46; viability z-score without drug -2.19.
Silencing of Ptgis came out at: combined z-score class no change with or without drug; viability z-score with doxorubicin 0; viability z-score without drug 0.84.
For Adgre4, the entry reads combined z-score class no change with or without drug; viability z-score with doxorubicin -0.22; viability z-score without drug 0.84.
With knock-down of Slc18a3, the record shows combined z-score class low cell count with doxorubicin only (active); viability z-score with doxorubicin -2.47; viability z-score without drug 0.17.

Targets listed so far whose target name starts with T or t (3):
Tmcc2 | combined z-score class = low cell count without drug only; viability z-score with doxorubicin = -1.57; viability z-score without drug = -2.87
Tbc1d22a | combined z-score class = no change with or without drug; viability z-score with doxorubicin = 1.01; viability z-score without drug = -0.17
Taf7 | combined z-score class = low cell count without drug only; viability z-score with doxorubicin = -1.46; viability z-score without drug = -2.19
